# Experimental data as given in patent publication US7638055B2, “Sludge quality” (Rhodia Operations, priority 2004, dated 2009).
# Like-named read-outs stand apart in the source and are kept apart here.
# Details: sample 48 days after start up, settling period of one hour
substance,measurement,setting,value
tetrakis(hydroxymethyl)phosphonium sulphate [Compound X],Observations (settling of sludge),2 mg/l/day,Clear water with settled sludge at bottom
same,Observations (settling of sludge),4 mg/l/day,Clear water with settled sludge at bottom
